According to the supplement of paper PMC5407854, “Inhibitor of ppGalNAc-T3-mediated O-glycosylation blocks cancer cell invasiveness and lowers FGF23 levels” (eLife, 2017):
Some of the results follow. Most values lie at the level of the controls, where differences are scatter.

System: ppGalNAc-T2 sensor
Assay: T2 sensor activation Q score (MG/GFP ratio z-score vs DMSO controls) (SD units); higher = more sensor activation (inhibition of ppGalNAc-T2 glycosylation)
Conditions: HEK293 sensor cells; 10 µM; 6 h
Description: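 Cells were treated with compound at 10 uM for 6 h, then MG/GFP ratio was read by flow cytometry (10,000 cells per well, duplicate wells). Q = (R - R_neg)/SD_neg relative to DMSO vehicle controls; the signal rises when the glycosyltransferase is inhibited.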

Structure (SMILES) | T2 sensor activation Q score
COc1ccc(C2C(=C(O)c3ccccc3)C(=O)C(=O)N2C)cc1OC (stereo not given) | 0.885
CCCNC(=O)N1c2ccccc2Sc2ccccc21 | -0.165
CC1CCC(NCCN2CCOCC2)CC1 (stereo not given) | -0.01
CC(=O)c1ccc(N2CCOCC2)c(F)c1 | 0.405
O=C(NCCO)C12CC3CCC(CC(C3)C1)C2 | 0.65
Cc1cc(-c2ccccc2)nc2cc(C(N)=O)nn12 | 0.285
CCc1ccc(OCC(O)CN2CCCC2)cc1 (stereo not given) | -0.765
CCN(CC)C(=O)C1CCCN(Cc2cccc(Br)c2)C1 (stereo not given) | -0.64
CC(=O)NCC1OCCc2ccccc21 (stereo not given) | -0.39
C=CCSc1nc2sc3c(c2c(=O)n1-c1ccccc1)CCN(C)C3 | -0.38
COc1ccc(-c2nnc(N)o2)cc1 | -1.19
CCCCNC(=O)c1ccc(Cl)cc1 | 0.545
Cc1cccc(OCC(=O)Nc2cccc(C)c2C)c1 | -0.245
COc1cc2c(cc1OC)C(c1ccccc1[N+](=O)[O-])N(C(C)=O)CC2 (stereo not given) | -1.47
COc1cc(C)nc(NN)n1 | 0.74
CCOc1ccccc1N1CCN(Cc2cc3c(cc2[N+](=O)[O-])OCO3)CC1 | -0.12
CC(C(=O)O)N1C(=O)c2ccccc2C1=O (stereo not given) | -0.35
Clc1ccccc1CN1CCc2ccccc2C1 | -0.72
CCOc1ccc(N2C(=O)CC(SCC(=O)Nc3ccc(F)cc3)C2=O)cc1 (stereo not given) | -0.865
CC(C)(C)c1cc(Br)cc(C=O)c1O | 0.275

Taken from above.
Value for Cc1cc(-c2ccccc2)nc2cc(C(N)=O)nn12 under T2 sensor activation Q score: 0.285
Value for CC1CCC(NCCN2CCOCC2)CC1 (stereo not given) under T2 sensor activation Q score: -0.01

Next part:

Structure (SMILES) | T2 sensor activation Q score
O=C(O)c1ccccc1Sc1ccccc1C(=O)O | -0.93
COc1cc2c(cc1OC)C(c1ccccc1[N+](=O)[O-])NCC2 (stereo not given) | -0.865
CN(C)c1nc(N(C)C)nc(N(C)C)n1 | 0.805
O=C(NCC(O)c1ccccc1)c1cccc(Cl)c1 (stereo not given) | -0.085
Cc1ccc(C(O)=C2C(=O)C(=O)N(C)C2c2ccc(F)cc2)cc1 (stereo not given) | -0.52
CCCNC(=O)Nc1ccc(C(=O)O)cc1 | 0.09
Cc1cccc(C)c1NC(=O)NC1CCCCC1 | 0.37
COc1cc(CN2CCN(Cc3ccccc3)CC2)cc(OC)c1O | 0.115
CCCCOc1ccc(CC(=O)O)cc1 | -1.07
COc1cc(CN2CCN(C/C=C/c3ccccc3)CC2)cc(OC)c1OC | 0.005
c1ccc(OCCCn2ccnc2)cc1 | -0.845
COc1ccccc1C(=O)Nc1ccc(-c2nc3cc(Cl)ccc3o2)cc1 | -1.04
Cc1onc(-c2ccccc2Cl)c1C(=O)N1CC(C)OC(C)C1 (stereo not given) | 0.26
CC(=O)c1ccc(N2CCN(C(=O)c3ccccc3F)CC2)c(F)c1 | -0.285
Clc1ccc(CNC2CCN(Cc3ccccc3)CC2)cc1 | -0.06
CC1C(c2ccccc2)N(C)CCC1(O)c1ccccc1 (stereo not given) | -0.46
CC1CCN(S(=O)(=O)c2cc(C(=O)O)ccc2Br)CC1 | -0.675
CCOc1ccccc1CN1CCN(c2ccccn2)CC1 | -0.19
Oc1ccc(O)c([S+]2CCCCC2)c1 | -0.235
CC(=O)Nc1ccc(NC(=O)COc2cccc(C)c2)cc1 | 1.78
